This is an account of results in publication PMC8271163.

Sequences of proteins named here, by UniProt entry; tags and fusion partners are left off.
UniProt P60322: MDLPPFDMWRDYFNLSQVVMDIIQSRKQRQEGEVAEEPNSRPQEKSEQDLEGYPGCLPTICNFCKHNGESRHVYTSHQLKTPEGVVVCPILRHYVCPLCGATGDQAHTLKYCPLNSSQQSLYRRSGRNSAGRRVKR
UniProt Q80U58: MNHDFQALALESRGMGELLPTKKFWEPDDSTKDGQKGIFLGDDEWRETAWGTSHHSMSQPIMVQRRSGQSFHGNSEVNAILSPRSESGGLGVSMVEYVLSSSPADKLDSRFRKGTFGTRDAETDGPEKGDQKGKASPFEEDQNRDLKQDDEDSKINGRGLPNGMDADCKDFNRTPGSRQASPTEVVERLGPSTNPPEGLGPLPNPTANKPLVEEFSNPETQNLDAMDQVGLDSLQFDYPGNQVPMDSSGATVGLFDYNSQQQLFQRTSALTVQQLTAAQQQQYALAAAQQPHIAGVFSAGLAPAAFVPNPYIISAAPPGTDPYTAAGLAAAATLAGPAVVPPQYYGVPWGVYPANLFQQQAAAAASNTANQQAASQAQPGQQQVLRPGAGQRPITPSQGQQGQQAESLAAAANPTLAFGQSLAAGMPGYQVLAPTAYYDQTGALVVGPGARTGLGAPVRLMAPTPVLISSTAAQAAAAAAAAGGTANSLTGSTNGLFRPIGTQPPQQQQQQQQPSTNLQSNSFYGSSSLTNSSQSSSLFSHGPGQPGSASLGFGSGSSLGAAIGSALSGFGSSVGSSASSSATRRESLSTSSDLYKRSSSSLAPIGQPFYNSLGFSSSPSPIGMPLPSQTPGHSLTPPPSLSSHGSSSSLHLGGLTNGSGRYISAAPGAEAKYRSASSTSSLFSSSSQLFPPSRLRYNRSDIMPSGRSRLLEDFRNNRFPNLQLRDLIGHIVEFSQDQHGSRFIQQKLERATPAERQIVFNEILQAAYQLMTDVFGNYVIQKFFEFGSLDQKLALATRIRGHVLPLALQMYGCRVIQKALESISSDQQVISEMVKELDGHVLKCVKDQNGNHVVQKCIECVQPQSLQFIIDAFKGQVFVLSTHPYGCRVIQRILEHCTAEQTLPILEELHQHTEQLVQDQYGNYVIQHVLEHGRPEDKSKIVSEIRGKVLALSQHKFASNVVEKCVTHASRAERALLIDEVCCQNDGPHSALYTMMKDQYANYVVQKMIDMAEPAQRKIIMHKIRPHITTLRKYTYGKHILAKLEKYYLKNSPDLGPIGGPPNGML
UniProt Q80U78: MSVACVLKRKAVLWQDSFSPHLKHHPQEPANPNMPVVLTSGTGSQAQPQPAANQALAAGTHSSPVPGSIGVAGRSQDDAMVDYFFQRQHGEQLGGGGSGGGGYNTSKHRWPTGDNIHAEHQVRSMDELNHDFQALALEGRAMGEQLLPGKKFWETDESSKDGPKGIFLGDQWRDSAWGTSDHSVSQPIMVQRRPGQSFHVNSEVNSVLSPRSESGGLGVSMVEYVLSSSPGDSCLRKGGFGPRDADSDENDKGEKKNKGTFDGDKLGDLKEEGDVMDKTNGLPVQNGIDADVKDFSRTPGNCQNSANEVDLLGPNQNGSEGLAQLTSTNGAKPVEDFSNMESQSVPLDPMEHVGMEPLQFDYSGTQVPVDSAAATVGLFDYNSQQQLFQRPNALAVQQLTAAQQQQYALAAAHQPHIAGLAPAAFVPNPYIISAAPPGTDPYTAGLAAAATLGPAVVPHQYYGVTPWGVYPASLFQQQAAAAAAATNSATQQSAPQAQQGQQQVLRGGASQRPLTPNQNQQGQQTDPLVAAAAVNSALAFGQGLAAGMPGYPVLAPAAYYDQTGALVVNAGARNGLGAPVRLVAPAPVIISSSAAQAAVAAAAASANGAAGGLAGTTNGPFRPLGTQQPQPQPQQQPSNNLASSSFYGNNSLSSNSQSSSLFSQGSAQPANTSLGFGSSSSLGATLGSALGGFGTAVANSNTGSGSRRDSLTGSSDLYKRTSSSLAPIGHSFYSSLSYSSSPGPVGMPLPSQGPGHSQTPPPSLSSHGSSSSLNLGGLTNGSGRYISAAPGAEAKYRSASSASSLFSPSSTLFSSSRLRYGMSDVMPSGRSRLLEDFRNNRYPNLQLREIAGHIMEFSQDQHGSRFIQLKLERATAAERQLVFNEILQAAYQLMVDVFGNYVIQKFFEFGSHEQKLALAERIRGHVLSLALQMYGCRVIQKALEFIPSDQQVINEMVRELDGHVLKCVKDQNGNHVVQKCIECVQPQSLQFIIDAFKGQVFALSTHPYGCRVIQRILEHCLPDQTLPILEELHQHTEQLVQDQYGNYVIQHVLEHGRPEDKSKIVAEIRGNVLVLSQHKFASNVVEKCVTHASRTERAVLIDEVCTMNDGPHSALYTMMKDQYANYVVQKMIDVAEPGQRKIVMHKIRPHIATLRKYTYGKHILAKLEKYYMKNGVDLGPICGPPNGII

The target of this test is TAG-NANOS2 (N-terminal tagged NANOS2 protein) (mouse) (UniProt P60322). The test is described as follows: affinity purification with mass spectrometry; TAG-NANOS2 immunoprecipitated with anti-GFP antibody cross-linked to Protein G magnetic beads from Nanos2^TAG/TAG against Nanos2^CTL SSC lines; IP without RNase; three replicates; label-free quantitation; hits at greater than four times enrichment and p value < 0.05.

Results are given in words; binding and its absence hold for the method and conditions named. In cells and extracts the contact can be indirect. Here binding means that the protein was enriched with, or labelled near, the bait; the list need not be complete. No binding means not detected with the bait.

PUM2 (from UniProt Q80U58 1-1066): the binding result is given as “no binding”.

Take PUM1 (from UniProt Q80U78 1-1189): the binding entry is recorded as “no binding”.
